{
  "source": "PubChem BioAssay AID540276",
  "about": "(National Center for Advancing Translational Sciences (NCATS), 2011)",
  "note": "About 5,400 (1.8%) of roughly 300,000 compounds were called active. Inconclusive results, whose numbers are uncertain, are shown with a selection of clear calls. Calls follow the shape of the full dose curve; tested in HEK293 cells. Potencies of inconclusive entries are doubtful fits and often do not repeat. % is scaled to controls: 0 for no effect and ±100 for the full control effect; potency is read from the fitted curve at half-maximal effect.",
  "data": [
    {"assay": "qHTS for inhibitors of binding or entry into cells for Marburg Virus", "conditions": "Marburg virus pseudotyped entry inhibition, cell reporter; activity change, negative = inhibition: at 37.8 µM (top of the series) unless noted", "values": [
      {"compound": "CC(C)(C)NC(=O)Cn1nnc(-c2ccc(OCc3c(F)cccc3Cl)cc2)n1", "Potency": "inconclusive: 5.62 µM [activator, single point]"},
      {"compound": "CCOC(=O)C1CCN(C(=O)CSCc2nc(-c3ccc(OCC)cc3)oc2C)CC1", "Potency": "inconclusive: 15.8 µM [inhibitor, single point]"},
      {"compound": "Cc1nc2sc(-c3ccccc3)cc2c(=O)n1-n1cccc1", "Potency": "inconclusive: 6.31 µM [activator, single point]"},
      {"compound": "C/C(CC(=O)Nc1ccc2c(c1)OCO2)=N\\NC(=O)OC(C)(C)C", "Potency": "inconclusive: 14.1 µM [activator, single point]"},
      {"compound": "COC(=O)c1ccc(N2CCN(C)CC2)c(NC(=O)c2sc3ccccc3c2Cl)c1", "activity change, negative = inhibition": "inactive: -2.84% [at 46.1 µM]"},
      {"compound": "CCn1c(N2CCN(S(=O)(=O)c3ccc(Cl)cc3)CC2)nc2ccccc21", "Potency": "inconclusive: 35.5 µM [inhibitor, single point]"},
      {"compound": "CC(C)(C)C(=O)NC(=S)Nc1sc2c(c1C#N)CCCCC2", "Potency": "inconclusive: 0.891 µM [activator, full curve]"},
      {"compound": "Cc1ccc(SCC(=O)Nc2cccc(NC(=O)c3ccco3)c2)cc1", "activity change, negative = inhibition": "inactive: -1.6%"},
      {"compound": "[O-]/C(=C(\\C(=S)Nc1cccc2ccccc12)[n+]1ccccc1)c1cccs1", "activity change, negative = inhibition": "inactive: 16.8% [at 46.1 µM]"},
      {"compound": "CCCCN(CCCC)CC(O)COc1ccc(Br)cc1", "note": "(stereo not given)", "Potency": "inconclusive: 12.6 µM [inhibitor, partial curve, poor fit]"},
      {"compound": "O=C(c1ccc(-c2nnc(Nc3cccc(Cl)c3)c3ccccc23)cc1)N1C[C@H]2C[C@H](C1)c1cccc(=O)n1C2", "Potency": "inconclusive: 35.5 µM [inhibitor, single point]"},
      {"compound": "CCn1c2ccc(C)cc2c2nc3cc(C(=O)O)ccc3nc21", "Potency": "inconclusive: 35.5 µM [inhibitor, single point]"},
      {"compound": "COc1ccc(-c2[nH]c(-c3ccccc3)nc2SCC(=O)Nc2ccc3c(c2)OCCO3)cc1", "Potency": "inconclusive: 3.55 µM [inhibitor, single point]"},
      {"compound": "N#Cc1c(C(F)(F)F)cc(C2CC2)nc1N1CCCC1", "activity change, negative = inhibition": "inactive: 10.7%"},
      {"compound": "Cc1cc(C)cc(NC(=O)C(OC(=O)c2cccs2)c2ccccc2)c1", "note": "(stereo not given)", "Potency": "inconclusive: 1.12 µM [inhibitor, full curve, poor fit]"},
      {"compound": "O=C1CCC2=C(CC(O)=C(O)C2)O1", "activity change, negative = inhibition": "inactive: 4.86%"},
      {"compound": "COc1cc2cc(C(c3nnnn3C(C)(C)C)N3CCc4ccccc4C3)c(=O)[nH]c2cc1OC", "note": "(stereo not given)", "Potency": "inconclusive: 29.1 µM [inhibitor, partial curve, poor fit]"},
      {"compound": "FC(F)(F)c1ccc(Oc2ccc3c(C(F)(F)F)cc(C(F)(F)F)nc3n2)cc1", "Potency": "inconclusive: 29.1 µM [inhibitor, single point]"},
      {"compound": "COCCN(C(=O)COC(=O)CCc1ccccc1)c1c(N)n(Cc2ccccc2)c(=O)[nH]c1=O", "activity change, negative = inhibition": "inactive: -10.1%"},
      {"compound": "Cc1ccc(S(=O)(=O)N/N=C/c2cccc3c2OCCO3)cc1", "Potency": "inconclusive: 7.94 µM [inhibitor, partial curve, poor fit]"},
      {"compound": "CNC(=S)N(Cc1ccc(OC)cc1)Cc1cc2ccc(C)cc2[nH]c1=O", "Potency": "inconclusive: 7.08 µM [inhibitor, single point]"},
      {"compound": "Oc1ccc(-c2cn3cc(C(F)(F)F)ccc3n2)cc1", "Potency": "active: 5.8 µM"},
      {"compound": "Cc1ccc2[nH]c(C(=O)Nc3ccccc3)cc2c1", "Potency": "inconclusive: 0.316 µM [activator, full curve, poor fit]"},
      {"compound": "CCC(C)c1ccc(OCCCCN2CCOCC2)cc1", "note": "(stereo not given)", "Potency": "inconclusive: 6.31 µM [activator, single point]"},
      {"compound": "Cn1c(Cl)c(/C=N/OC(=O)C2CC2)c2ccccc21", "activity change, negative = inhibition": "inactive: 2.41% [at 46.1 µM]"},
      {"compound": "COc1cc(OC)c(NC(=O)C(NS(=O)(=O)c2cccc3nsnc23)c2ccccc2)cc1Cl", "note": "(stereo not given)", "activity change, negative = inhibition": "inactive: -29.9% [at 46.1 µM]"},
      {"compound": "Cc1ccc2nc(NC(=O)CN(C)S(=O)(=O)c3ccc(Br)s3)sc2c1", "Potency": "inconclusive: 35.5 µM [inhibitor, single point]"},
      {"compound": "Cc1nnc2c3cnn(-c4ccc(Cl)cc4)c3ncn12", "activity change, negative = inhibition": "inactive: 1.13%"},
      {"compound": "Cc1ccc(-c2[nH]c(-c3ccc(Cl)cc3)nc2SCC(=O)NCC2CCCO2)cc1", "note": "(stereo not given)", "activity change, negative = inhibition": "inactive: 2.92%"},
      {"compound": "CSc1ncccc1C(=O)NC1CC(C)(C)Cc2c1cnn2-c1ccccc1C", "note": "(stereo not given)", "Potency": "inconclusive: 35.5 µM [inhibitor, single point]"},
      {"compound": "Cc1ccccc1N(C(=O)Cn1nnc(-c2ccc(F)cc2)n1)C(C(=O)NC(C)(C)C)c1ccncc1", "note": "(stereo not given)", "Potency": "inconclusive: 7.08 µM [inhibitor, full curve, poor fit]"},
      {"compound": "CC(C)OCCCN1C(=O)c2ccccc2C1C(=O)NC1CCCCC1", "note": "(stereo not given)", "activity change, negative = inhibition": "inactive: 1.29%"},
      {"compound": "O=C(COc1cccc(NC(=O)c2cccc([N+](=O)[O-])c2)c1)c1ccc(F)cc1", "Potency": "inconclusive: 12.6 µM [inhibitor, partial curve]"},
      {"compound": "Cc1cccc(NC(=O)C2(c3ccccc3)CC2(Cl)Cl)c1", "note": "(stereo not given)", "activity change, negative = inhibition": "inactive: -5.24%"},
      {"compound": "COC(=O)C1=C(C(=O)OC)[C@@H]2Nc3ccccc3[C@@]23C[C@@H](C(=O)OC)N(C(=O)N2CCNC2=O)C3=N1", "activity change, negative = inhibition": "inactive: 7.64% [at 14.2 µM]"}
    ]}
  ]
}
